# Source: PubChem BioAssay AID504648 (National Center for Advancing Translational Sciences (NCATS), 2011)
# Out of some 390,000 compounds screened, about 610 (0.16%) were called active. Inconclusive means that the source gave no clear call. Such entries were picked first, then a sample of the others. Calls follow the shape of the dose curve; as a rule, active = well fitted inhibition curve with a large enough effect; inconclusive = small, poorly fitted or top-dose-only effect, or effect the other way, or another doubt; inactive = no such curve, though single readings can be large or run the other way. Potencies of inconclusive entries are doubtful fits and often do not repeat.
# Assay: Nrf2 qHTS screen for inhibitors: counterscreen for cytotoxicity
# Conditions: A549 ARE-Fluc cells, CellTiter-Fluor viability, 18-24 h; activity change, negative = cytotoxicity: at 46 µM (top of the series)
# Outline: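 A549 ARE-Fluc cells in 5% FBS OPTI-MEM, 5000 cells/well, rested 2 h then exposed to compounds in concentration-response for 18-24 h at 37 °C. Viability by CellTiter-Fluor fluorescence (Ex 405/Em 525) after 30 min; luciferase luminescence (BugLite, 15 min, RT) read afterwards.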
# % is scaled to controls: 0 for no effect and ±100 for the full control effect; potency is read from the fitted curve at half-maximal effect.
Structure (SMILES),"activity change, negative = cytotoxicity",Potency
COc1cc(C(c2nnnn2C(C)(C)C)N2CCN(c3nc4ccccc4s3)CC2)ccc1O (stereo not drawn),inactive: 2.75%,–
O=C1C(NS(=O)(=O)c2cccs2)=C(N2CCN(c3cccc(C(F)(F)F)c3)CC2)C(=O)c2ccccc21,–,"inconclusive: 20.6 µM [falling, single point]"
COc1ccc(-c2[nH]ncc2CN2CCN(c3ccc(F)cc3)CC2)cc1,inactive: 7.73%,–
O=C(CSc1ncc2c(n1)-c1cc(Cl)ccc1N(Cc1ccccc1)S2(=O)=O)Nc1ccc(F)cc1F,inactive: -2.88%,–
Cc1ccc(OCC(=O)Nn2cnnc2)c(Br)c1,inactive: 4.03%,–
CC1C/C(=C/c2ccccn2)C(=O)/C(=C/c2ccccn2)C1 (stereo not drawn),–,"inconclusive: 29.1 µM [falling, single point]"
Cc1ccc(C)c(N2CCN(C(=O)c3ccc(CS(=O)Cc4ccc(Cl)cc4)o3)CC2)c1 (stereo not drawn),–,"inconclusive: 16.4 µM [falling, partial curve, poor fit]"
O=C(CSc1nnc2n(C3CCCC3)c(=O)c3ccccc3n12)N1CCCCCC1,inactive: -4.07%,–
COCCC(=O)N1CCC(Oc2ccc(C(=O)NCCCC3CCCC3)cc2)CC1,–,"inconclusive: 2.31 µM [activator, full curve, poor fit]"
COc1ccc(C(=O)CC(Nc2ccc([N+](=O)[O-])cc2)c2ccc(OC)cc2)cc1 (stereo not drawn),inactive: -21.7%,–
CN1C[C@@H]2C(c3ccccc3)C3(c4ccc(C#N)cc4)CC2(C3)[C@H]1c1ccccc1 (stereo partly drawn),inactive: 2.39%,–
CC(C)(C)c1ccc(C(=O)Nc2cc(-c3ccccc3)nn2-c2ccccc2)cc1,inactive: -7.54%,–
CCN(CC)CCN1C(=O)Cn2c(C)c(C)c3cccc1c32,–,"inconclusive: 29.1 µM [falling, single point]"
Cc1cc(C)cc(NC(=S)N2CCN(c3ncccn3)CC2)c1,–,"inconclusive: 29.1 µM [activator, single point]"
COc1ccc(NS(=O)(=O)c2ccc(NC(=O)CCNS(=O)(=O)c3ccc(C)cc3)cc2)cc1,–,"inconclusive: 29.1 µM [falling, partial curve, poor fit]"
COc1ccc(C(C(=O)NC2CCCC2)N(C(=O)c2snc(-c3ccc(F)cc3)c2N)c2ccc(F)cc2)cc1 (stereo not drawn),–,"inconclusive: 16.4 µM [falling, partial curve, poor fit]"
CCCc1cc(=O)n2[nH]c(-c3ccccc3)cc2n1,–,"inconclusive: 32.6 µM [activator, partial curve, poor fit]"
CN(C)CCCN(CCCNC(=O)/C=N/O)Cc1ccccc1,–,"inconclusive: 32.6 µM [falling, partial curve, poor fit]"
Cc1cc(C(=O)Cn2nc(C(=O)O)c3ccccc3c2=O)c(C)n1-c1ccccc1,–,"inconclusive: 14.6 µM [activator, partial curve, poor fit]"
Cn1c(-c2cc3ccc(OC(=O)C(C)(C)C)cc3oc2=O)nc2ccccc21,–,"inconclusive: 4.61 µM [activator, partial curve]"
CC1CCCCC1n1c(=S)[nH]c2ccccc2c1=O (stereo not drawn),–,"inconclusive: 29.1 µM [falling, single point]"
Cc1nc2ncccn2c1-c1csc(Nc2ccc(O)cc2)n1,inactive: -14.8%,–

Structure (SMILES),"activity change, negative = cytotoxicity",Potency
Cc1ccc(-n2nc3ccc(NC(=O)/C=C/c4ccco4)cc3n2)cc1C,–,"inconclusive: 7.31 µM [falling, single point]"
Nc1nc(-c2ccc(Cl)cc2)c(N=Nc2ccc(S(=O)(=O)N3CCOCC3)cc2)s1,–,"inconclusive: 6.51 µM [falling, partial curve, poor fit]"
COc1ccc(NC(=O)/C=C/c2ccc(S(=O)(=O)N3CCOCC3)cc2)cc1,inactive: -1.79%,–
N/C(=N\OC(=O)COc1ccc(Cl)cc1Cl)c1ccncc1,inactive: 5.29%,–
Cc1ccc(C(=O)N2CCN(c3ccc([N+](=O)[O-])c(NCc4cccnc4)c3)CC2)cc1,–,"inconclusive: 25.9 µM [falling, partial curve, poor fit]"
COc1ccc(-n2c(Cc3cccn3C)nnc2SCC(=O)NCCc2ccccc2)cc1,–,"inconclusive: 23.1 µM [falling, single point]"
N#CCC(=O)NNc1c([N+](=O)[O-])cc(C(F)(F)F)cc1[N+](=O)[O-],–,"inconclusive: 23.1 µM [falling, single point]"
COc1cccc(NC(=O)CN(C)C(=O)Cc2cccc3ccccc23)c1,inactive: 1.62%,–
CCOC(=O)c1[nH]c(C)c(CCC(=O)NCc2ccc(C)cc2)c1C,inactive: 21.5%,–
CCOC(=O)c1ccc(NC(=O)CCc2c(C)n(CC)c3cc(-c4ccccc4OC)nn3c2=O)cc1,inactive: -5.04%,–
CCOc1ccc(-n2c(=S)sc3c(=O)[nH]c(SCC(=O)NC(C)CC)nc32)cc1 (stereo not drawn),inactive: -6.01%,–
O=C(CSc1nc2ccccc2n1S(=O)(=O)c1cccc([N+](=O)[O-])c1)NCCc1ccccc1,–,"inconclusive: 29.1 µM [falling, single point]"
FC(F)(F)c1cccnc1-n1cncn1,–,"inconclusive: 9.2 µM [falling, partial curve, poor fit]"
CCCCC(=O)Nc1cc(C)c(NC(=O)c2ccco2)cn1,inactive: -7.93%,–
CN(CC(=O)Nc1ccc(S(=O)(=O)N2CCCC2)cc1)Cc1cccc(Cl)c1Cl,inactive: 2.95%,–
Cc1cccc(/C=N/Nc2cc(N3CCOCC3)nc(N3CCOCC3)n2)c1,–,"inconclusive: 0.58 µM [activator, full curve]"
Cc1c(CCCl)c(Cl)n2c(nc3ccccc32)c1C#N,–,"inconclusive: 29.1 µM [falling, partial curve, poor fit]"
CC(C)(C)NC(=S)NC(=O)C12CC3CCC(CC(C3)C1)C2,–,"inconclusive: 6.51 µM [activator, full curve, poor fit]"
O=C(Nc1nonc1NC(=O)c1cccs1)c1cccs1,–,"inconclusive: 5.8 µM [falling, partial curve]"
COc1cccc2c1[C@@H]1CN(CCCCn3c(=O)[nH]c4c(sc5ncc(-c6ccccc6)nc54)c3=O)C[C@@H]1CO2,inactive: -21.5%,–
Cc1ccc(-n2c3nc(=O)[nH]c(=O)c-3cc3cc([N+](=O)[O-])ccc32)cc1C,–,"inconclusive: 23.1 µM [falling, single point]"

# Reprinted at random: 2 records from the list.
Structure (SMILES),"activity change, negative = cytotoxicity",Potency
N/C(=N\OC(=O)COc1ccc(Cl)cc1Cl)c1ccncc1,inactive: 5.29%,–
COc1ccc(NC(=O)/C=C/c2ccc(S(=O)(=O)N3CCOCC3)cc2)cc1,inactive: -1.79%,–
